Source: PubChem BioAssay AID504764 (Drosophila RNAi Screening Center, 2011)

- Assay: 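Knock-downs that raise or lower a Notch target reporter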 (primary screen)
- Cell system: Drosophila Kc167 cells
- Knock-down reagent: long dsRNA against Drosophila genes
- Time to read-out: about 5 days (4 days dsRNA, then 24 h after transfection)
- Treatment: transfection of constitutively active membrane-tethered Notch lacking the extracellular domain, read 24 h later
- Measured: 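Light from a Notch-responsive E(spl)m3 luciferase reporter under active Notch, with control-promoter and no-Notch reporter wells to normalise; raw counts from paired wells a and b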
- Direction: induced reporter light, run 1, well a and induced reporter light, run 1, well b: higher = more light from the Notch target reporter with active Notch; control promoter light, run 1, well a and control promoter light, run 1, well b: higher = more light from the viral control promoter (cell number, transfection, viability); uninduced reporter light, run 1, well a: higher = more light from the Notch target reporter without active Notch
- Active means: 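Hit if the duplicate-averaged log2 ratio of induced to control-promoter light gives a plate-wise z beyond ±2, or induced to uninduced beyond ±1.8; weak-control or discordant-duplicate wells dropped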
- Calls: active = modifier hit (raised or lowered Notch signal); inactive = not a hit
The deposit covers about 22,000 reagents; shown is a random part of those with a known target gene and a result. Over the whole deposit, 403 (1.9%) were called active. 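Unnormalised raw counts per well; ratio z-scores behind the hit calls and whether each hit raises or lowers signal are not deposited.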 Not stated in the record: the amount of reagent.

After knock-down of CG18234 [DRSC10309] the results were induced reporter light, run 1, well a = 1.38e5; induced reporter light, run 1, well b = 1.73e5; control promoter light, run 1, well a = 2.30e5; control promoter light, run 1, well b = 1.68e5; uninduced reporter light, run 1, well a = 9410; inactive. Silencing of Cdc23 [DRSC02708] came out at: induced reporter light, run 1, well a = 2.36e5; induced reporter light, run 1, well b = 1.79e5; control promoter light, run 1, well a = 1.97e5; control promoter light, run 1, well b = 2.08e5; uninduced reporter light, run 1, well a = 16080; inactive. CG7924 [DRSC10931] scored induced reporter light, run 1, well a = 1.20e5; induced reporter light, run 1, well b = 1.55e5; control promoter light, run 1, well a = 66850; control promoter light, run 1, well b = 95380; uninduced reporter light, run 1, well a = 11838; inactive. Against CG31872 [DRSC02568] the deposit lists induced reporter light, run 1, well a = 1.04e5; induced reporter light, run 1, well b = 1.56e5; control promoter light, run 1, well a = 70960; control promoter light, run 1, well b = 95960; uninduced reporter light, run 1, well a = 15842; inactive. With knock-down of CG31872 [DRSC02572], the record shows induced reporter light, run 1, well a = 1.45e5; induced reporter light, run 1, well b = 1.47e5; control promoter light, run 1, well a = 78660; control promoter light, run 1, well b = 1.09e5; uninduced reporter light, run 1, well a = 16385; inactive. With knock-down of CG17328 [DRSC01927], the screen gave induced reporter light, run 1, well a = 1.78e5; induced reporter light, run 1, well b = 1.44e5; control promoter light, run 1, well a = 1.20e5; control promoter light, run 1, well b = 1.50e5; uninduced reporter light, run 1, well a = 13310; inactive.

Against Phk-3 [DRSC04547], the values are induced reporter light, run 1, well a = 1.61e5; induced reporter light, run 1, well b = 1.91e5; control promoter light, run 1, well a = 1.57e5; control promoter light, run 1, well b = 1.47e5; uninduced reporter light, run 1, well a = 13295; inactive. For CG17343 [DRSC02606] the deposit lists induced reporter light, run 1, well a = 41620; induced reporter light, run 1, well b = 33240; control promoter light, run 1, well a = 33685; control promoter light, run 1, well b = 25370; uninduced reporter light, run 1, well a = 2760; inactive. After knock-down of CG17224 [DRSC00489] the results were induced reporter light, run 1, well a = 1.88e5; induced reporter light, run 1, well b = 1.81e5; control promoter light, run 1, well a = 2.72e5; control promoter light, run 1, well b = 2.18e5; uninduced reporter light, run 1, well a = 13460; inactive. Depletion of CG7912 [DRSC16343] gave: induced reporter light, run 1, well a = 1.24e5; induced reporter light, run 1, well b = 1.46e5; control promoter light, run 1, well a = 1.55e5; control promoter light, run 1, well b = 1.52e5; uninduced reporter light, run 1, well a = 12560; inactive. For CG46491 [DRSC06565] the deposit lists induced reporter light, run 1, well a = 79275; induced reporter light, run 1, well b = 99835; control promoter light, run 1, well a = 1.84e5; control promoter light, run 1, well b = 2.76e5; uninduced reporter light, run 1, well a = 10900; active. Against CG46491 [DRSC06566] the deposit lists induced reporter light, run 1, well a = 1.09e5; induced reporter light, run 1, well b = 83765; control promoter light, run 1, well a = 1.07e5; control promoter light, run 1, well b = 1.22e5; uninduced reporter light, run 1, well a = 7710; inactive.

Silencing of Rab3 [DRSC07523] came out at: induced reporter light, run 1, well a = 96675; induced reporter light, run 1, well b = 1.12e5; control promoter light, run 1, well a = 95710; control promoter light, run 1, well b = 93845; uninduced reporter light, run 1, well a = 8905; inactive. Against TFAM [DRSC15552], the entry reads induced reporter light, run 1, well a = 1.34e5; induced reporter light, run 1, well b = 1.56e5; control promoter light, run 1, well a = 1.68e5; control promoter light, run 1, well b = 1.56e5; uninduced reporter light, run 1, well a = 14505; inactive. With knock-down of CG8419 [DRSC03087], the screen gave induced reporter light, run 1, well a = 1.76e5; induced reporter light, run 1, well b = 1.91e5; control promoter light, run 1, well a = 1.35e5; control promoter light, run 1, well b = 1.60e5; uninduced reporter light, run 1, well a = 21360; inactive. For Pop2 [DRSC10537], the entry reads induced reporter light, run 1, well a = 52000; induced reporter light, run 1, well b = 45840; control promoter light, run 1, well a = 37910; control promoter light, run 1, well b = 14500; uninduced reporter light, run 1, well a = 5195; inactive. Against Nsun2 [DRSC18662] the deposit lists induced reporter light, run 1, well a = 1.68e5; induced reporter light, run 1, well b = 2.01e5; control promoter light, run 1, well a = 2.29e5; control promoter light, run 1, well b = 2.13e5; uninduced reporter light, run 1, well a = 10890; inactive. CG16815 [DRSC02521] showed induced reporter light, run 1, well a = 1.13e5; induced reporter light, run 1, well b = 1.47e5; control promoter light, run 1, well a = 1.11e5; control promoter light, run 1, well b = 1.11e5; uninduced reporter light, run 1, well a = 11850; inactive.

2 neighbouring records from above:
CG17343 [DRSC02606] | induced reporter light, run 1, well a: 41620; induced reporter light, run 1, well b: 33240; control promoter light, run 1, well a: 33685; control promoter light, run 1, well b: 25370; uninduced reporter light, run 1, well a: 2760; call: inactive
CG17224 [DRSC00489] | induced reporter light, run 1, well a: 1.88e5; induced reporter light, run 1, well b: 1.81e5; control promoter light, run 1, well a: 2.72e5; control promoter light, run 1, well b: 2.18e5; uninduced reporter light, run 1, well a: 13460; call: inactive
